# The supplement of paper PMC8728848
# The other results are listed elsewhere or left out.
# Experiments:
# Experiment in all cases: glycan array binding signal (z-score within array); higher = stronger binding
# Details in all cases: glycan notation: IUPAC condensed, linker removed
# GalNAc(b1-3)GalNAc = molecular target: GalNAc(b1-3)GalNAc
# Method in brief: (§1)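 The Consortium for Functional Glycomics database supplied 3228 glycan arrays, of which those lacking an available protein sequence were dropped. The binding signal, a within-array Z-score, was averaged across arrays of the same protein sequence and across linkers. Negative scores can be read as non-binding.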
# GalNAc(b1-4)GlcNAc = molecular target: GalNAc(b1-4)GlcNAc
# Method in brief: as §1
# Glc(a1-4)Glc = molecular target: Glc(a1-4)Glc
# Method in brief: as §1
# Glc(a1-6)Glc(a1-6)Glc = molecular target: Glc(a1-6)Glc(a1-6)Glc
# Method in brief: as §1
# Glc(b1-4)Glc = molecular target: Glc(b1-4)Glc
# Method in brief: as §1
# Glc(b1-6)Glc = molecular target: Glc(b1-6)Glc
# Method in brief: as §1
# GlcA(b1-3)Gal = molecular target: GlcA(b1-3)Gal
# Method in brief: as §1
# GlcA(b1-3)GlcNAc = molecular target: GlcA(b1-3)GlcNAc
# Method in brief: as §1
# GlcA(b1-6)Gal = molecular target: GlcA(b1-6)Gal
# Method in brief: as §1
# [1] = molecular target: GlcNAc(a1-3)Gal(b1-4)GlcNAc
# Method in brief: as §1
# [2] = molecular target: GlcNAc(a1-6)Gal(b1-4)GlcNAc
# Method in brief: as §1
# [3] = molecular target: GlcNAc(b1-2)Gal(b1-3)GalNAc
# Method in brief: as §1
# [4] = molecular target: GlcNAc(b1-2)Man(a1-3)[GlcNAc(b1-2)Man(a1-6)]Man(b1-4)GlcNAc(b1-4)GlcNAc
# Method in brief: as §1
# GlcNAc(b1-3)Gal = molecular target: GlcNAc(b1-3)Gal
# Method in brief: as §1
# [5] = molecular target: GlcNAc(b1-3)Gal(b1-3)GalNAc
# Method in brief: as §1
# GlcNAc(b1-3)Gal(b1-4)Glc = molecular target: GlcNAc(b1-3)Gal(b1-4)Glc
# Method in brief: as §1
# [6] = molecular target: GlcNAc(b1-3)Gal(b1-4)GlcNAc
# Method in brief: as §1
# [7] = molecular target: GlcNAc(b1-3)Gal(b1-4)GlcNAc(b1-3)Gal(b1-4)GlcNAc
# Method in brief: as §1
# GlcNAc(b1-3)GalNAc = molecular target: GlcNAc(b1-3)GalNAc
# Method in brief: as §1
# GlcNAc(b1-3)Man = molecular target: GlcNAc(b1-3)Man
# Method in brief: as §1
# [8] = molecular target: GlcNAc(b1-3)[GlcNAc(b1-4)][GlcNAc(b1-6)]GlcNAc
# Method in brief: as §1
# [9] = molecular target: GlcNAc(b1-3)[GlcNAc(b1-6)]Gal(b1-4)GlcNAc
# Method in brief: as §1
# [10] = molecular target: GlcNAc(b1-3)[GlcNAc(b1-6)]GalNAc
# Method in brief: as §1
# [11] = molecular target: GlcNAc(b1-4)Gal(b1-4)GlcNAc
# Method in brief: as §1
# GlcNAc(b1-4)GlcNAc = molecular target: GlcNAc(b1-4)GlcNAc
# Method in brief: as §1
# [12] = molecular target: GlcNAc(b1-4)GlcNAc(b1-4)GlcNAc
# Method in brief: as §1
# [13] = molecular target: GlcNAc(b1-4)GlcNAc(b1-4)GlcNAc(b1-4)GlcNAc(b1-4)GlcNAc
# Method in brief: as §1
# [14] = molecular target: GlcNAc(b1-4)GlcNAc(b1-4)GlcNAc(b1-4)GlcNAc(b1-4)GlcNAc(b1-4)GlcNAc
# Method in brief: as §1
# [15] = molecular target: GlcNAc(b1-4)[GlcNAc(b1-6)]GalNAc
# Method in brief: as §1
# [16] = molecular target: GlcNAc(b1-6)Gal(b1-4)GlcNAc
# Method in brief: as §1
# GlcNAc(b1-6)GalNAc = molecular target: GlcNAc(b1-6)GalNAc
# Method in brief: as §1
# GlcNAc3Prop(b1-4)GlcNAc = molecular target: GlcNAc3Prop(b1-4)GlcNAc
# Method in brief: as §1
# Kdn(a2-3)Gal(b1-3)GlcNAc = molecular target: Kdn(a2-3)Gal(b1-3)GlcNAc
# Method in brief: as §1
# Kdn(a2-3)Gal(b1-4)GlcNAc = molecular target: Kdn(a2-3)Gal(b1-4)GlcNAc
# Method in brief: as §1
# [17] = molecular target: Man(a1-2)Man(a1-2)Man(a1-3)Man
# Method in brief: as §1
# [18] = molecular target: Man(a1-2)Man(a1-2)Man(a1-6)[Man(a1-3)]Man
# Method in brief: as §1
# Man(a1-2)Man(a1-3)Man = molecular target: Man(a1-2)Man(a1-3)Man
# Method in brief: as §1
# [19] = molecular target: Man(a1-2)Man(a1-3)[Man(a1-2)Man(a1-6)]Man
# Method in brief: as §1
# [20] = molecular target: Man(a1-2)Man(a1-3)[Man(a1-2)Man(a1-6)]Man(a1-6)[Man(a1-2)Man(a1-2)Man(a1-3)]Man
# Method in brief: as §1
# [21] = molecular target: Man(a1-2)Man(a1-3)[Man(a1-2)Man(a1-6)]Man(a1-6)[Man(a1-2)Man(a1-2)Man(a1-3)]Man(b1-4)GlcNAc(b1-4)GlcNAc
# Method in brief: as §1
# [22] = molecular target: Man(a1-2)Man(a1-3)[Man(a1-2)Man(a1-6)]Man(a1-6)[Man(a1-3)[Man(a1-6)]Man(a1-6)]Man(b1-4)GlcNAc(b1-4)GlcNAc
# Method in brief: as §1
# [23] = molecular target: Man(a1-2)Man(a1-3)[Man(a1-6)]Man(a1-6)[Man(a1-2)Man(a1-3)]Man(b1-4)GlcNAc(b1-4)GlcNAc
# Method in brief: as §1
# [24] = molecular target: Man(a1-2)Man(a1-6)[Man(a1-3)]Man(a1-6)[Man(a1-2)Man(a1-2)Man(a1-3)]Man
# Method in brief: as §1
# [25] = molecular target: Man(a1-2)Man(a1-6)[Man(a1-3)]Man(a1-6)[Man(a1-2)Man(a1-2)Man(a1-3)]Man(b1-4)GlcNAc(b1-4)GlcNAc
# Method in brief: as §1
# Man(a1-3)[Man(a1-6)]Man = molecular target: Man(a1-3)[Man(a1-6)]Man
# Method in brief: as §1
binder,measurement,setting,value
"TbCVNHOa (Tuber borchii), Q5MK11 (protein) MSYADSSRNAVLTNGGRTLRAECRNADGNWVTSELDLDTCIGNPNGFLGWGMQNFSHSSEDIKLEEGGRKLTCRPKTVDGGFRERQGIDLNRIQNVNGRLVFQ",glycan array binding signal (z-score),GalNAc(b1-3)GalNAc,0.171
same,glycan array binding signal (z-score),GalNAc(b1-4)GlcNAc,-0.067
same,glycan array binding signal (z-score),Glc(a1-4)Glc,-0.277
same,glycan array binding signal (z-score),Glc(a1-6)Glc(a1-6)Glc,0.202
same,glycan array binding signal (z-score),Glc(b1-4)Glc,-0.266
same,glycan array binding signal (z-score),Glc(b1-6)Glc,1.09
same,glycan array binding signal (z-score),GlcA(b1-3)Gal,-0.018
same,glycan array binding signal (z-score),GlcA(b1-3)GlcNAc,-0.325
same,glycan array binding signal (z-score),GlcA(b1-6)Gal,0.061
same,glycan array binding signal (z-score),[1],-0.179
same,glycan array binding signal (z-score),[2],-0.249
same,glycan array binding signal (z-score),[3],-0.099
same,glycan array binding signal (z-score),[4],-0.125
same,glycan array binding signal (z-score),GlcNAc(b1-3)Gal,0.021
same,glycan array binding signal (z-score),[5],0.734
same,glycan array binding signal (z-score),GlcNAc(b1-3)Gal(b1-4)Glc,-0.284
same,glycan array binding signal (z-score),[6],-0.384
same,glycan array binding signal (z-score),[7],-0.324
same,glycan array binding signal (z-score),GlcNAc(b1-3)GalNAc,-0.057
same,glycan array binding signal (z-score),GlcNAc(b1-3)Man,-0.555
same,glycan array binding signal (z-score),[8],-0.314
same,glycan array binding signal (z-score),[9],0.219
same,glycan array binding signal (z-score),[10],-0.235
same,glycan array binding signal (z-score),[11],-0.133
same,glycan array binding signal (z-score),GlcNAc(b1-4)GlcNAc,-0.345
same,glycan array binding signal (z-score),[12],-0.236
same,glycan array binding signal (z-score),[13],-0.615
same,glycan array binding signal (z-score),[14],-0.762
same,glycan array binding signal (z-score),[15],-0.075
same,glycan array binding signal (z-score),[16],-0.101
same,glycan array binding signal (z-score),GlcNAc(b1-6)GalNAc,-0.297
same,glycan array binding signal (z-score),GlcNAc3Prop(b1-4)GlcNAc,-0.037
same,glycan array binding signal (z-score),Kdn(a2-3)Gal(b1-3)GlcNAc,-0.429
same,glycan array binding signal (z-score),Kdn(a2-3)Gal(b1-4)GlcNAc,-0.011
same,glycan array binding signal (z-score),[17],5.14
same,glycan array binding signal (z-score),[18],0.051
same,glycan array binding signal (z-score),Man(a1-2)Man(a1-3)Man,0.455
same,glycan array binding signal (z-score),[19],-0.133
same,glycan array binding signal (z-score),[20],-0.719
same,glycan array binding signal (z-score),[21],-0.347
same,glycan array binding signal (z-score),[22],-0.309
same,glycan array binding signal (z-score),[23],0.155
same,glycan array binding signal (z-score),[24],-0.18
same,glycan array binding signal (z-score),[25],0.667
same,glycan array binding signal (z-score),Man(a1-3)[Man(a1-6)]Man,-0.273

# A stretch from the list above:
binder,measurement,setting,value
"TbCVNHOa (Tuber borchii), Q5MK11 (protein) MSYADSSRNAVLTNGGRTLRAECRNADGNWVTSELDLDTCIGNPNGFLGWGMQNFSHSSEDIKLEEGGRKLTCRPKTVDGGFRERQGIDLNRIQNVNGRLVFQ",glycan array binding signal (z-score),[17],5.14
same,glycan array binding signal (z-score),[18],0.051
